Positions count from the first letter of the chain named. Names may count otherwise. These are yes or no findings as the source states them, for the method shown. Some entries that bind do so weakly or less than the wild type.
B1: M8-S151A+S159D (protein, UniProt P13098 1-179)
chain: MEYTTKTQIYQKVKKPMLERQRRARMNKCLDNLKTLVAELRGDDGILRMDKAEMLESAVIFMRQQKTPKKVAQEEQSLPLDSFKNGYMNAVNEVSRVMASTPGMSVDLGKSVMTHLGRVYKNLQQFHEAQSAADFIQNSMDCSSMDKAPLAPASSGYHDDCDSPAPSPQPMQQPLWRPW
B2: M8-S151D (protein, UniProt P13098 1-179)
chain: B1 chain with A151D, D159S
B3: M8-S151D+S159D (protein, UniProt P13098 1-179)
chain: B1 chain with A151D

The chains behind the UniProt entries cited, without tags or fusion partners.
UniProt P16371: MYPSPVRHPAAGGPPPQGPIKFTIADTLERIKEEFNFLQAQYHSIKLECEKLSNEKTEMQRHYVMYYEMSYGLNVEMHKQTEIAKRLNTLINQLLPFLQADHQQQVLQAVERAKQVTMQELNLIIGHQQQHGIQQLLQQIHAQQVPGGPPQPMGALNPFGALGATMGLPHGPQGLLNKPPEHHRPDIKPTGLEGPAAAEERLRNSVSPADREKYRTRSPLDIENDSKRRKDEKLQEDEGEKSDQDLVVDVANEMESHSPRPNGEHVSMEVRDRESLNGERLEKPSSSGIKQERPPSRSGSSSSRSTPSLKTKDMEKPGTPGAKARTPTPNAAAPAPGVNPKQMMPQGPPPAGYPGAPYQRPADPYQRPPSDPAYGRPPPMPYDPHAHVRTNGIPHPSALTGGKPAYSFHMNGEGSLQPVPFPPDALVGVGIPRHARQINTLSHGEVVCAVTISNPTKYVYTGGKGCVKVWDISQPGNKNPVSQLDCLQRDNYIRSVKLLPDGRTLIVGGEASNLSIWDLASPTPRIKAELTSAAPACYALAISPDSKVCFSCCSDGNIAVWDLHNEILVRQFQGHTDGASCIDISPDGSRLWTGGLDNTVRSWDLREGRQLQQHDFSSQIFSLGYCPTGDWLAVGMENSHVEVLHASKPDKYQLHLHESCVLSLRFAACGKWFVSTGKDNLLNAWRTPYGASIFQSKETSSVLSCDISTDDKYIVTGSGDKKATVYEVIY

Each binder was assayed against Groucho (Drosophila) (UniProt P16371) (assay: two-hybrid; LexA-based yeast interaction trap; bait fused to the DNA-binding domain of LexA, prey to the activation domain of B42; yeast strain EGY048p; which protein was bait is not stated).

Row | binding | Binder
1 | binds | B1
2 | binds | B2
3 | binds | B3

Source: paper PMC4948772
